PubChem BioAssay AID720504 (National Center for Advancing Translational Sciences (NCATS), 2013)
Among all 360,000 compounds or so, about 10,000 (2.8%) were called active. The inconclusive results got no clear call from the source; some entries with a clear call stand among them for comparison. Calls follow the shape of the dose curve; as a rule, active = well fitted inhibition curve with a large enough effect; inconclusive = small, poorly fitted or top-dose-only effect; inactive = flat fitted curve, though single readings scatter. Where the call is inconclusive, the potency comes from a doubtful curve fit.

The chains behind the UniProt entries cited, without tags or fusion partners.
UniProt P53350, whole entry, looked up: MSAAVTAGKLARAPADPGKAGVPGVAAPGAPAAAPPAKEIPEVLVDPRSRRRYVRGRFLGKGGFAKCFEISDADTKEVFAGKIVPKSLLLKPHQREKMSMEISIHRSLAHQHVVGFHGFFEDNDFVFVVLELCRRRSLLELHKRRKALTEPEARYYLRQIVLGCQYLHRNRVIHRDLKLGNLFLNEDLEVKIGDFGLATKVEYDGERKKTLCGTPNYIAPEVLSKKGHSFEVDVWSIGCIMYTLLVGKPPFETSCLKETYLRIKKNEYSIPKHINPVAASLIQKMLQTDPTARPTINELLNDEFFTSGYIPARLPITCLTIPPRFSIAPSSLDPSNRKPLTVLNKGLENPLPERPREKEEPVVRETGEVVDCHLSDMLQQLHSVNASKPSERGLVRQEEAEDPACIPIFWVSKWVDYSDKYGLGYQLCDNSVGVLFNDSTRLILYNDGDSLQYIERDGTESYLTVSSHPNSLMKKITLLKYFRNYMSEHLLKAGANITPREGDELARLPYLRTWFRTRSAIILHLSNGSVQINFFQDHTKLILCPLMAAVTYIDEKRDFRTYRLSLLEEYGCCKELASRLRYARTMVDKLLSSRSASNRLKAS

biological target: Serine/threonine-protein kinase PLK1 (Homo sapiens) (UniProt P53350); test: qHTS for Inhibitors of PLK1-PDB (polo-like kinase 1 - polo-box domain): Primary Screen; conditions: Plk1 PBD binding of FITC phosphopeptide, fluorescence polarization; also: nearly all actives have a fitted effect of over 65% in size; as to max response, negative = inhibition: series mostly up to about 57 µM
% is scaled to controls: 0 for no effect and ±100 for the full control effect; potency is read from the fitted curve at half-maximal effect.

SMILES	Potency	max response, negative = inhibition
COc1cc(C2C(C#N)=C(N)N(c3ccc(F)cc3)C3=C2S(=O)(=O)CC3)ccc1O (centres undefined)	inconclusive: 18.9 µM [inhibitor, partial curve]	–
COc1ccc(-c2nn3c(-c4ccccc4)nnc3s2)cc1OC	inconclusive: 29.9 µM [inhibitor, partial curve]	–
Cc1cc(C)c2nc(-c3ccccn3)cc(C(=O)Nc3ccc(S(=O)(=O)Nc4cc(C)on4)cc3)c2c1	active: 21.2 µM	–
CCCOc1ccc(C(=O)NC(=S)Nc2nc(C)c(C(=O)N(C)C)s2)cc1	–	inactive: -7.25%
COc1cccc(C2=NOC(C(=O)Nc3c(C)n(C)n(-c4ccccc4)c3=O)C2)c1 (centres undefined)	inconclusive: 29.9 µM [inhibitor, partial curve, poor fit]	–
CC(C)C[C@@H](CN=[N+]=[N-])N1CCN(CC(C)C)CCC1=O	inconclusive: 23.8 µM [inhibitor, single point]	–
CCN(CC)CCCNc1nc2ccccc2c2nc(-c3ccncc3)nn12	inconclusive: 37.7 µM [inhibitor, single point]	–
Cn1nnnc1SCC(=O)NC(=O)Cc1ccccc1	active: 2.99 µM	–
O=C(Nc1nc2ccccc2[nH]1)c1ccccc1O	–	inactive: -0.0721%
O=C(O)C1CCCCC1C(=O)NC1C2CC3CC(C2)CC1C3 (centres undefined)	–	inactive: -5.27%
O=c1cc(-c2ccccc2)n(S(=O)(=O)c2ccc3ccccc3c2)o1	inconclusive: 23.8 µM [inhibitor, partial curve]	–
CCCCN(CC)CCCNC(=O)CS(=O)(=O)Cc1nc(-c2cccc(OC)c2)oc1C	–	inactive: 0.434%
O=[N+]([O-])c1cc2c(cc1C=Nc1ccccc1)OCO2	inconclusive: 26.7 µM [inhibitor, partial curve]	–
O=S(=O)(Nc1ncnc2sc3c(c12)CCC3)c1ccc(Cl)s1	inconclusive: 26.7 µM [inhibitor, single point]	–
CCCN(CCC)Cc1cc(=O)oc2cc(C)ccc12	–	inactive: -2.45%
CCOC(=O)c1c(NS(=O)(=O)c2cccc(OC)c2)sc2c1CCC2	inconclusive: 23.8 µM [inhibitor, single point]	–
NCCc1c(C(=O)O)[nH]c2ccc([N+](=O)[O-])cc12	active: 21.2 µM	–
COc1ccc(Cl)c(NCCC(=O)O)c1	–	inactive: -7.21%
COc1cc(CN2C(=O)C(C)ON=C2c2cccs2)cc(OC)c1 (centres undefined)	–	inactive: 1.46%
CC(C)OCC(O)CSc1ccccn1 (centres undefined)	–	inconclusive: -35.2% [inhibitor]
O=[N+]([O-])c1ccc(/C([O-])=C(/C(=S)Nc2ccccc2F)[n+]2ccccc2)cc1	–	inactive: -24.7%
COc1ccc(C2=NN(C(=O)c3ccncc3)C(c3ccccc3O)C2)cc1 (centres undefined)	–	inactive: 5.87%
O=C(COc1ccccc1[N+](=O)[O-])N1CCC(Cc2ccccc2)CC1	inconclusive: 29.9 µM [inhibitor, partial curve]	–
Cc1c(C(=O)N2CCC(n3nccc3NC(=O)C3CC3)CC2)[nH]c2ccc(Cl)cc12	inconclusive: 21.2 µM [inhibitor, partial curve]	–
COc1ccc(Cc2nc(-c3cccs3)no2)cc1	–	inactive: -4.45%

Reprinted at random: 4 records from the list.
SMILES	Potency	max response, negative = inhibition
CC(C)OCC(O)CSc1ccccn1 (centres undefined)	–	inconclusive: -35.2% [inhibitor]
O=C(O)C1CCCCC1C(=O)NC1C2CC3CC(C2)CC1C3 (centres undefined)	–	inactive: -5.27%
O=S(=O)(Nc1ncnc2sc3c(c12)CCC3)c1ccc(Cl)s1	inconclusive: 26.7 µM [inhibitor, single point]	–
CCCCN(CC)CCCNC(=O)CS(=O)(=O)Cc1nc(-c2cccc(OC)c2)oc1C	–	inactive: 0.434%

The list continues:

SMILES	Potency	max response, negative = inhibition
CC(NS(=O)(=O)c1ccccc1)C(=O)NC1CCCC1 (centres undefined)	inconclusive: 23.8 µM [inhibitor, partial curve]	–
COc1cc(/C=C/C(=O)Nc2nnc(CC(C)(C)C)s2)cc(OC)c1OC	active: 8.44 µM	–
CC(=O)Nc1ccc(SCCN2CC[C@@H](C(C)(C)C)CCC2=O)cc1	active: 10.6 µM	–
CCOc1cc(C(=O)NC(=S)Nc2ccc(Cl)c(C(=O)O)c2)cc(OCC)c1OCC	inconclusive: 37.7 µM [inhibitor, single point]	–
Oc1ccccc1CN(Cc1ccco1)CC(O)COCc1ccc(Cl)cc1 (centres undefined)	–	inactive: -8.97%
Cc1ccc(-n2c(N)c(C(N)=O)sc2=S)cc1	active: 5.97 µM	–
Cc1ccccc1/C=C/C(=O)c1ccc([N+](=O)[O-])o1	inconclusive: 11.9 µM [inhibitor, partial curve]	–
CCOc1ccc(C(=S)N2CCCC2)cc1	–	inactive: -3.91%
COc1cc(C(=O)N2CCN(C(=O)c3cc(-c4ccc(Br)cc4)n[nH]3)CC2)cc(OC)c1OC	–	inactive: -0.763%
Cc1cc(Cl)cc(C)c1OCC(=O)O	inconclusive: 21.2 µM [inhibitor, partial curve]	–
CCOC(=O)c1c(C)n(-c2ccc(C)cc2)c2ccc(OCC(O)CNCCCO)cc12 (centres undefined)	–	inactive: -5.87%
COc1ccc(Oc2nc3c(c(=O)n(C)c(=O)n3C)n2Cc2ccccc2)cc1	active: 26.7 µM	–
CC(=O)Nc1ccc(NC(=O)CC2Nc3cccc4cccc(c34)NC2=O)cc1 (centres undefined)	–	inactive: -10.3%
CCc1c(C)nc2c(Br)cccc2c1SCCC#N	inconclusive: 23.8 µM [inhibitor, partial curve]	–
Cc1cn(CC(=O)NCCc2c[nH]c3ccccc23)c(=O)[nH]c1=O	inconclusive: 21.2 µM [inhibitor, partial curve]	–
Cc1ccc(C)c(S(=O)(=O)NCC(=O)Nc2sc3c(c2C(N)=O)CCC(C)C3)c1 (centres undefined)	inconclusive: 18.9 µM [inhibitor, partial curve]	–
N#Cc1c(NC(=O)c2ccc(Cn3cc(Br)cn3)o2)sc2c1CCCCCC2	inconclusive: 23.8 µM [inhibitor, partial curve]	–
Cc1cc(C(=O)CSc2nc(N)cc(N)n2)c(C)n1-c1cccc(F)c1	inconclusive: 15 µM [inhibitor, partial curve]	–
O=[N+]([O-])/C=C/c1cn(Cc2ccccc2)c2ccccc12	inconclusive: 11.9 µM [inhibitor, partial curve]	–
CC(C)CCN(C(=S)NC(=O)C1CCCCC1)c1c(N)n(Cc2ccccc2)c(=O)[nH]c1=O	inconclusive: 23.8 µM [inhibitor, partial curve]	–
Cc1nn(C)c(Sc2ccccc2N)c1[N+](=O)[O-]	active: 13.4 µM	–
Cc1ccccc1N=Nc1c(O)n(C)c2ccccc12	inconclusive: 26.7 µM [inhibitor, partial curve]	–
O=C1CCC2c3[nH]c4ccccc4c3CCN12 (centres undefined)	inconclusive: 29.9 µM [inhibitor, single point]	–
COc1ccsc1C(=O)Nc1ccc(F)cc1F	inconclusive: 37.7 µM [inhibitor, single point]	–
COC(=O)c1cc(NC(=O)CN2C(=O)C(=O)N(C3CCCC3)C2=O)cc(C(=O)OC)c1	–	inactive: -1.04%

SMILES	Potency	max response, negative = inhibition
CCc1ccc(C(=O)O)cc1	–	inactive: 1.68%
O=C(C1CC1)N(CCN(Cc1ccccc1)C(=O)C1CC1)Cc1ccccc1	active: 26.7 µM	–
COc1ccccc1NC(=O)CSc1nc2sc3c(c2c(=O)n1-c1ccccc1)CCN(C)C3	inconclusive: 15 µM [inhibitor, partial curve]	–
Cc1ccccc1NC(=O)Cn1nnc(S(=O)(=O)c2ccc(C(C)(C)C)cc2)c1N	–	inactive: -13.5%
Cc1ccc(Cl)cc1NC1=C/C(=N\S(=O)(=O)c2cccs2)c2ccccc2C1=O	inconclusive: 23.8 µM [inhibitor, single point]	–
Clc1ccc(C2=CSC3=Nc4cccc5cccc(c45)N23)cc1	inconclusive: 23.8 µM [inhibitor, partial curve]	–
O=S(=O)(c1ccc(SCCOc2ccc(F)cc2)nc1)N1CCCC1	inconclusive: 29.9 µM [inhibitor, partial curve]	–
COCCNC(=S)NNC(=O)c1cc(C2CC2)nc2ccccc12	–	inactive: -0.161%
Cc1ccc(C(=O)Nc2ccccc2N2CCCC2)cc1	inconclusive: 37.7 µM [inhibitor, single point]	–
Cc1nn(CCc2nc(-c3ccco3)cs2)c2[nH]c(=O)cc(C(F)(F)F)c12	active: 10.6 µM	–
CC(=O)c1cccc(NC(=O)C2CCN(C(=O)c3cccs3)CC2)c1	–	inactive: -5.89%
COc1ccc(N2Cc3cccc(C(=O)O)c3C2=O)cc1	inconclusive: 21.2 µM [inhibitor, single point]	–
COC(=O)Oc1c(Br)c(=O)oc2ccccc12	inconclusive: 26.7 µM [inhibitor, partial curve]	–
CCCNC(=O)c1ccc(Cl)c(Cl)c1	active: 21.2 µM	–
CCC(/C=C1\Sc2ccc(OC)cc2N1CC)=C\c1sc2ccc(OC)cc2[n+]1CCCS(=O)(=O)[O-]	inconclusive: 26.7 µM [inhibitor, partial curve]	–
CCn1nccc1C(=O)Nc1cc(Cl)ccc1Cl	–	inactive: -1.05%
CN(C(=O)CSc1n[nH]c(=O)[nH]c1=O)c1ccccc1	–	inactive: -5.06%
Cc1ccc(OC(=O)N(C)C[C@@H]2OCc3cn(nn3)CCCC(=O)N([C@@H](C)CO)C[C@H]2C)cc1	–	inconclusive: -32.6% [inhibitor]
CCCC(=O)NC(=S)Nc1ccccc1C(=O)OC	active: 29.9 µM	–
O=C(CC(Cc1ccccc1)C(=O)O)Nc1ccc(Cl)c(Cl)c1 (centres undefined)	–	inconclusive: -34.5% [inhibitor]
O=C(Cc1c[nH]c2ccccc12)NCc1cccs1	–	inactive: -5.57%
O=C(NNC(=O)c1ccc([N+](=O)[O-])cc1)c1ccc(F)cc1	–	inactive: -1.92%
C/C(CC(=O)N1CCN(C=O)CC1)=N\NC(=O)c1ccc(Cl)cc1	inconclusive: 15 µM [inhibitor, single point]	–
Clc1ccc(C2[C@H]3CN(CC4CCCCC4)[C@H](c4ccccc4)C34CC2(c2ccccc2)C4)cn1 (some centres undefined)	–	inactive: -6.38%
